Experimental findings from paper PMC11063191, “Galectin-3 impairs calcium transients and β-cell function” (Nature Communications, 2024) are described below.

Amino acid sequences for entries named in this document (tags omitted).
UniProt P62956: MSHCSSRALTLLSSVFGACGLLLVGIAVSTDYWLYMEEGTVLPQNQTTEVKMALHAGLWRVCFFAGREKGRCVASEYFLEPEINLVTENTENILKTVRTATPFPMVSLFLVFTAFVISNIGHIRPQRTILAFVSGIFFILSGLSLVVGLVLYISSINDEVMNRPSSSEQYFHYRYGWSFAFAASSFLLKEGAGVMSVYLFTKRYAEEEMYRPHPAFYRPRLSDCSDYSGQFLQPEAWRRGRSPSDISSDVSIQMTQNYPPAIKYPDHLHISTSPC
UniProt P16110: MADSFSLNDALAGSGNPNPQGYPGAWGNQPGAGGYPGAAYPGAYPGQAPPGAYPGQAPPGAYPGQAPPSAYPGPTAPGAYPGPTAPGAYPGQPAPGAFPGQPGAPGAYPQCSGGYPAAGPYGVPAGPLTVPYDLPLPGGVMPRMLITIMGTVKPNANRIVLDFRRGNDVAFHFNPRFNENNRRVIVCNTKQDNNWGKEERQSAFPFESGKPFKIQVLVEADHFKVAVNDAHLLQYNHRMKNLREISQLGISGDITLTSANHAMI

Where a chain is given by its changes, count along the chain named. No constants are given. Whether binding was seen depends on the method and setting. Binding seen in cells or lysates may run through a third protein. Some binding calls cover weakened binding; strength is not graded here. For part of these data: Tags and fused reporters may be left off the sequences shown.

The target of test [1] is T1, Flag-tagged CACNG1 (N43A/N80A) (UniProt O70578).
T1 sequence: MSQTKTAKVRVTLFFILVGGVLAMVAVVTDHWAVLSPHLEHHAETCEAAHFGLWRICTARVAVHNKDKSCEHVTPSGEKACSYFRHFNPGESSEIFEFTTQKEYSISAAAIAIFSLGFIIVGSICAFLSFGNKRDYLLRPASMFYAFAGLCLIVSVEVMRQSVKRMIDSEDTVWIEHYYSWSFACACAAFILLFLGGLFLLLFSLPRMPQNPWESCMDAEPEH
The test can be described thus: co-IP; cells transfected with plasmids for 48 h (MIN6 and 293T), lysate incubated overnight at 4 °C with bead-linked antibody to the bait protein, blots for Flag and GFP.

Another test addresses T2, CACNG3 (UniProt Q9JJV5).
T2 sequence: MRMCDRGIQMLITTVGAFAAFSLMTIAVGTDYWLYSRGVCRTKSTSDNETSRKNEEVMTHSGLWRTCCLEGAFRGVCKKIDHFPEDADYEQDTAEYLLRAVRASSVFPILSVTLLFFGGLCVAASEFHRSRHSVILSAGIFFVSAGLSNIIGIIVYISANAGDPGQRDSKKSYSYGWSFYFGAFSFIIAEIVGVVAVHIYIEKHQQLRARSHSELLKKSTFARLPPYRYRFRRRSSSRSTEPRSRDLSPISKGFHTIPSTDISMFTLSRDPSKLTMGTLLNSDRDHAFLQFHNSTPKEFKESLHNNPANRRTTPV
The description is as above.

Test [2] deals with T3, Flag-tagged CACNG1 (N43A) (UniProt O70578).
T3 sequence: T1 sequence with A80N
Described as above.

The next test has as its target T4, CACNG2 (UniProt O88602).
T4 sequence: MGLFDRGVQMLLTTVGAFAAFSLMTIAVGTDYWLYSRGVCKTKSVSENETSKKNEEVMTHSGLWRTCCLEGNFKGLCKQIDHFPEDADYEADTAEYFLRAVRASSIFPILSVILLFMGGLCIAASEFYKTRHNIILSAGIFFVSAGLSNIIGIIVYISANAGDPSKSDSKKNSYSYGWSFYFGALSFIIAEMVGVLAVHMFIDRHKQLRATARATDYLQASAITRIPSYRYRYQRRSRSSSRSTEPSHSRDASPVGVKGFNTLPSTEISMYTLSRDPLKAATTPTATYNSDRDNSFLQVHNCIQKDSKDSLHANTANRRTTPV
Described as above.

Test [3] concerns the target T5, Flag-tagged CACNG1 (N80A) (UniProt O70578).
T5 sequence: T1 sequence with A43N
Described as above.

Another test deals with T6, CACNG4 (UniProt Q9JJV4).
T6 sequence: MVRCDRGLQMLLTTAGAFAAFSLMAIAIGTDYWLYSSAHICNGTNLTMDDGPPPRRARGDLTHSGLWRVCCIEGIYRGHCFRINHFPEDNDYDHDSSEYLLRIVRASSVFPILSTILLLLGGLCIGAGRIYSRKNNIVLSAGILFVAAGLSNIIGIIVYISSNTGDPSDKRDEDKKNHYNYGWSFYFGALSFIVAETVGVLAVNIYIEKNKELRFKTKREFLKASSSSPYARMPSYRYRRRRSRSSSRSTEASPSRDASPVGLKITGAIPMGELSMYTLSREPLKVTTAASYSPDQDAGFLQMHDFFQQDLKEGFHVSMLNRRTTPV
The description is as above.

For the next test, the target named is CACNG7 (UniProt P62956). The test is described as above.
In the next test the target is T7, CACNG5 (UniProt Q8VHW4).
T7 sequence: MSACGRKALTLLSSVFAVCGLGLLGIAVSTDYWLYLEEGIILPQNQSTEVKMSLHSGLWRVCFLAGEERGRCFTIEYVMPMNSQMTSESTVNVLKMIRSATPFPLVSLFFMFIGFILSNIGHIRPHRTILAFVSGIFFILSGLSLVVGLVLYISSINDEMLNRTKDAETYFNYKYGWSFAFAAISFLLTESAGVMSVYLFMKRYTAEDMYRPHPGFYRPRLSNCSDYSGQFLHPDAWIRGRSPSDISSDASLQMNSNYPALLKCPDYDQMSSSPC
Described as above.

In test [4] the target is T8, CACNG1, endogenous (mouse (endogenous in MIN6)) (UniProt O70578).
T8 sequence: T1 sequence with A43N, A80N
The test can be described thus: co-IP; endogenous proteins in the MIN6 cell and macrophage coculture system (n = 1).

Take “GFP-tagged Gal3 (galectin-3) (from UniProt P16110 1-264)”: the binding result is given as “binds weakly” in test [1]; “binds weakly” with CACNG3; “binds” in test [2]; “binds weakly” in the test with CACNG2; “binds” in [3]; “binds weakly” in the test with CACNG4. Moreover, the binding entry in the test with CACNG7 and in the test with CACNG5 was “binds weakly” throughout.

As for “Galectin-3 (Gal3), endogenous (from UniProt P16110 1-264)”, the binding result in [4] is given as “binds”.
